Results published in PubChem BioAssay AID2685 (National Center for Advancing Translational Sciences (NCATS), 2010).
Some of the results follow. Shown are side measurements of this screen, not its main read-out; they come without a call. Most of these compounds were active or inconclusive in the main read-out, so they are no random draw. Potencies come from curve fits of mixed quality, noted in brackets.

Assay: qHTS Assay for Lipid Storage Modulators in Drosophila S3 Cells;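 for cell number change: cells counted by Cell Tracker Red CMTPX staining in the red channel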
Details: BODIPY lipid droplet fluorescence, 18-24 h; for cell number change: measured here: cell count max response, cells fed with added oleic acid
Procedure, shortened: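 Laser-scanning cytometry quantifies lipid droplet accumulation (500–530 nm total intensity; droplet/cell object ratio) in oleic acid-fed (400 uM added) Drosophila S3 cells treated with a concentration series. 20 uM Triacsin C defined 100% inhibition.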

[1] = measured here: lipid fluorescence (Fed channel) AC50, cells fed with added oleic acid
[2] = measured here: cell number channel AC50, cells fed with added oleic acid

SMILES | cell number change | AC50 [1] | AC50 [2]
O=C(COc1ccccc1Cl)N(Cc1cccs1)C1CCS(=O)(=O)C1 (stereo not given) | -23% | – | –
COCC(=O)OC/C(O)=C(\C#N)c1nc2ccccc2[nH]1 | -11.4% | 32.6 µM [falling, single point] | –
CCCC/C(C)=N/NC(=O)Nc1ccccc1 | – | 20.6 µM [rising, single point] | –
O=c1[nH]c(C2CCN(S(=O)(=O)c3ccccc3F)CC2)nc2c1nnn2Cc1ccc2c(c1)OCCO2 | 34.3% | – | 29.1 µM [rising, single point]
CC1CCCC(NS(=O)(=O)c2cc3c(cc2Cl)NC(=O)CO3)C1C (stereo not given) | -11.2% | – | –
Cc1c(N(C)C)c(=O)n(-c2ccccc2)n1C | 9.72% | 1.16 µM [rising, partial curve] | –
Oc1c(Cl)cc(Cl)c(Cl)c1Cc1c(O)c(Cl)cc(Cl)c1Cl | -52.4% | 0.517 µM [falling, full curve, poor fit] | 18.4 µM [falling, single point]
Cc1ccc(C)c(Cn2nnc3c(=O)[nH]c(C4CCN(C(=O)c5ccco5)CC4)nc32)c1 | -0.87% | 6.51 µM [rising, single point] | –
CC1(C)CC(=O)CC(C)(C)N1OC(=O)c1ccco1 | -52.6% | 23.1 µM [falling, partial curve] | 14.6 µM [falling, partial curve, poor fit]
COCCN(Cc1cccs1)S(=O)(=O)c1ccc(-c2ccc(=O)[nH]n2)s1 | -10% | 29.1 µM [falling, partial curve, poor fit] | –
COc1ccc(C2=NN(CN3C(=O)C(=O)c4ccccc43)C(c3cccc([N+](=O)[O-])c3)C2)cc1 (stereo not given) | 23% | 29.1 µM [rising, single point] | –
CC1CN(C(=S)Nc2ccc(SC(F)F)cc2)CC(C)O1 (stereo not given) | 17.5% | – | –
COc1ccccc1NS(=O)(=O)c1ccc(O)c(NC(=S)NCC2CCCO2)c1 (stereo not given) | -44.9% | 32.6 µM [falling, partial curve] | 29.1 µM [falling, single point]
N#Cc1ccc(C2=CC(=O)C[C@H](c3ccc4c(c3)OCO4)C2)cc1 | -10.2% | 23.1 µM [falling, single point] | –
COc1ccccc1NS(=O)(=O)c1cc(C(=O)N2CCCC2)ccc1F | 2.55% | 0.82 µM [falling, full curve, poor fit] | –
CC12CN3CC(C)(CN(C1)C3c1ccc3ccccc3c1O)C2=O (stereo not given) | 0.178% | 5.8 µM [falling, single point] | –
CC(C)CNC(=O)c1ccc(NC(=O)c2ccccc2[N+](=O)[O-])cc1 | 48.2% | 0.517 µM [rising, full curve] | 16.4 µM [rising, single point]
CC(C)(C)C1CCC(=NNC(=O)c2ccco2)CC1 (stereo not given) | -23.1% | – | –
O=C(C1CCC(=O)N(C2CCCC2)C1)N1CCN(Cc2cccc(F)c2)CC1 (stereo not given) | – | 6.51 µM [falling, single point] | –
O=C(CN1C(=O)/C(=C/c2ccccc2)SC1=S)Nc1cccnc1 | -20% | 0.103 µM [falling, full curve, poor fit] | 0.13 µM [falling, full curve, poor fit]
CCOC(=O)CC(=O)Nc1nc2ccccc2s1 | 5.72% | – | –

SMILES | cell number change | AC50 [1] | AC50 [2]
CCCc1nnc(SCC(=O)N2C(C)CCCC2C)n1CCCOC (stereo not given) | 27.4% | 2.59 µM [rising, full curve] | –
Cn1cc(Cl)cc(C(=O)Nc2ccccc2)c1=O | 16.7% | – | –
CCOc1ccc2[nH]c(=O)c(C(c3nnnn3C3CCCCC3)N3CCN(CC)CC3)cc2c1 (stereo not given) | -7.74% | 0.92 µM [falling, single point] | –
Cc1cc(NC(=O)c2cccc(Cl)c2)n[nH]1 | -3.72% | 6.51 µM [rising, full curve, poor fit] | –
Cc1c(Cl)c([N+](=O)[O-])nn1Cc1ccc(C(=O)N/N=C\c2ccccn2)o1 | 31% | 23.1 µM [rising, partial curve, poor fit] | 0.731 µM [rising, full curve]
COC(=O)c1ccc(CNC(=O)CSC(C)C(=O)Nc2cc(C)on2)cc1 (stereo not given) | -17.5% | – | –
COc1ccc(C(=O)COC(=O)c2ccco2)cc1 | 2.37% | 0.58 µM [falling, single point] | –
Clc1ccccc1OCCCCN1CCCCC1 | 7.09% | – | –
CC(NCc1ccc(S(N)(=O)=O)cc1)C(=O)Nc1cc([N+](=O)[O-])ccc1Cl (stereo not given) | 53.1% | – | –
CN(C)Cc1c(O)ccc2c(=O)c(-c3ccccc3Cl)coc12 | 3.38% | 0.517 µM [rising, full curve, poor fit] | –
CCCCc1nc2ccccc2c(=O)n1NC(=O)c1c(O)c2cccc3c2n(c1=O)CCC3 | 0.708% | 0.00461 µM [falling, full curve, poor fit] | –
O=C(Nc1ccc(OC(F)(F)F)cc1)Oc1ccccc1N1CCOCC1 | -28.3% | 32.6 µM [falling, single point] | –
CCCC1C(c2ccco2)NC(c2ccco2)CC1(C)O (stereo not given) | -8.88% | – | –
Cc1cccc(N2CC(C(=O)Nc3cccc(S(=O)(=O)N4CCCCC4)c3)CC2=O)c1C (stereo not given) | -11.1% | 23.1 µM [rising, single point] | –
Cn1c(C(=O)O)cnc1Sc1ncc(C(F)(F)F)cc1Cl | 51.3% | – | –
O=C(NCc1cccnc1)/C(=C\c1ccc(-c2cccc(Cl)c2)o1)S(=O)(=O)c1ccccc1 | -38.8% | – | 9.2 µM [falling, single point]
Cc1cc(O)c(/C=N/Nc2cccc(Cl)c2)c(=O)o1 | – | 0.58 µM [falling, full curve] | –
C=CCNC(=O)c1nn2cccnc2c1Cl | 9.22% | 9.2 µM [rising, partial curve] | –
CCOC(=O)/C(C#N)=C1\Nc2ccccc2N=C1N(CC(C)C)CC(C)C | -83.3% | 11.6 µM [falling, partial curve] | 9.2 µM [falling, partial curve]
CC(Oc1ccc(F)cc1)C(=O)Nc1ccc(N2CCOCC2)cc1N1CCOCC1 (stereo not given) | 14.4% | 5.8 µM [rising, partial curve] | –

A draw from above in order of number of heavy atoms, ascending.
SMILES | cell number change | AC50 [1] | AC50 [2]
C=CCNC(=O)c1nn2cccnc2c1Cl | 9.22% | 9.2 µM [rising, partial curve] | –
Cn1cc(Cl)cc(C(=O)Nc2ccccc2)c1=O | 16.7% | – | –
COc1ccc(C(=O)COC(=O)c2ccco2)cc1 | 2.37% | 0.58 µM [falling, single point] | –
Cn1c(C(=O)O)cnc1Sc1ncc(C(F)(F)F)cc1Cl | 51.3% | – | –
CN(C)Cc1c(O)ccc2c(=O)c(-c3ccccc3Cl)coc12 | 3.38% | 0.517 µM [rising, full curve, poor fit] | –
CCCc1nnc(SCC(=O)N2C(C)CCCC2C)n1CCCOC (stereo not given) | 27.4% | 2.59 µM [rising, full curve] | –
Cc1c(Cl)c([N+](=O)[O-])nn1Cc1ccc(C(=O)N/N=C\c2ccccn2)o1 | 31% | 23.1 µM [rising, partial curve, poor fit] | 0.731 µM [rising, full curve]
CC(Oc1ccc(F)cc1)C(=O)Nc1ccc(N2CCOCC2)cc1N1CCOCC1 (stereo not given) | 14.4% | 5.8 µM [rising, partial curve] | –
CCCCc1nc2ccccc2c(=O)n1NC(=O)c1c(O)c2cccc3c2n(c1=O)CCC3 | 0.708% | 0.00461 µM [falling, full curve, poor fit] | –
CCOc1ccc2[nH]c(=O)c(C(c3nnnn3C3CCCCC3)N3CCN(CC)CC3)cc2c1 (stereo not given) | -7.74% | 0.92 µM [falling, single point] | –
